Measurements reported in PubChem BioAssay AID1159584 (Peter MacCallum Cancer Centre, 2016).
Test: 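Genes whose loss is lethal only together with E-cadherin loss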 (primary screen). Cell system: human MCF10A breast epithelial cells, parental and CDH1-null. Knock-down reagent: siRNA against human genes. Measured: 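ATP luminescence (CellTiter-Glo) viability per line relative to mean mock wells over all plates, and the ratio of CDH1-null to parental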. Scale: CDH1-null / parental viability ratio: higher = CDH1-null cells survive relatively better than parental; CDH1-null viability vs mock: higher = more viable CDH1-null cells.
The deposit covers about 18,000 reagents; this is a random part of them. Further read-outs or replicates are left out here. Reagent sequences are not shown. Not given: the amount of reagent, the time to read-out.

| gene | CDH1-null / parental viability ratio | CDH1-null viability vs mock (fraction of mock) |
| --- | --- | --- |
| FAP | 1.22 | 0.94 |
| CFAP184 | 0.88 | 0.69 |
| CTF1 | 0.92 | 0.77 |
| IL22RA1 | 0.7 | 0.62 |
| C1GALT1C1 | 0.86 | 0.88 |
| ZG16 | 1.19 | 0.74 |
| STAT5B | 1.02 | 0.88 |
| DYRK1B | 0.96 | 0.86 |
| GYS2 | 0.86 | 0.38 |
| ADD2 | 2.08 | 0.54 |
| MLPH | 1.03 | 0.72 |
| LILRB2 | 1.24 | 1.26 |
| CRAMP1 | 1.15 | 1.08 |
| DHRS7B | 0.79 | 0.74 |
| EHD1 | 1.02 | 0.52 |
| DOK2 | 0.95 | 0.53 |
| PYGO2 | 1.44 | 0.72 |
| GOLGA8EP | 0.95 | 1.06 |
| LRCH4 | 1.18 | 0.8 |
| PIGQ | 1.08 | 0.8 |
| ASPRV1 | 1.16 | 1 |
| INS-IGF2 | 1.01 | 0.91 |
| CACNG2 | 1.12 | 0.95 |
| KMO | 1.11 | 1.11 |
| SOX6 | 1.13 | 0.81 |
| EBLN2 | 1 | 0.6 |
| MTOR | 1.27 | 0.98 |
| DOCK2 | 0.85 | 0.68 |
| MIMS1 | 0.96 | 0.86 |
| CENPS | 1.21 | 1.16 |
| OR6T1 | 0.73 | 0.61 |
| LCNL1 | 1.56 | 0.86 |
| GALNT13 | 0.76 | 0.62 |
| ALOXE3 | 1.08 | 1.1 |
| ANGPTL6 | 1.41 | 1 |
| CCZ1 | 1.09 | 1.01 |
| CLIP3 | 1.03 | 0.76 |
| MADCAM1 | 1.01 | 0.99 |
| GOLGA6A | 0.98 | 0.84 |
| OR51I2 | 0.77 | 0.24 |
| PIGG | 1.13 | 1.08 |
| CD55 | 0.94 | 0.66 |
| OR5K1 | 0.86 | 0.64 |
| H2AC21 | 1.21 | 1.04 |
| PRRC2A | 1.11 | 0.89 |
| PFN2 | 1.08 | 0.79 |
